Experimental findings from publication doi:10.1101/2025.10.26.684696 are described below.

Chains of the proteins cited; added tags and fusions are not shown. Residues count along the entry.
UniProt Q9Y6N7, residues 26-897: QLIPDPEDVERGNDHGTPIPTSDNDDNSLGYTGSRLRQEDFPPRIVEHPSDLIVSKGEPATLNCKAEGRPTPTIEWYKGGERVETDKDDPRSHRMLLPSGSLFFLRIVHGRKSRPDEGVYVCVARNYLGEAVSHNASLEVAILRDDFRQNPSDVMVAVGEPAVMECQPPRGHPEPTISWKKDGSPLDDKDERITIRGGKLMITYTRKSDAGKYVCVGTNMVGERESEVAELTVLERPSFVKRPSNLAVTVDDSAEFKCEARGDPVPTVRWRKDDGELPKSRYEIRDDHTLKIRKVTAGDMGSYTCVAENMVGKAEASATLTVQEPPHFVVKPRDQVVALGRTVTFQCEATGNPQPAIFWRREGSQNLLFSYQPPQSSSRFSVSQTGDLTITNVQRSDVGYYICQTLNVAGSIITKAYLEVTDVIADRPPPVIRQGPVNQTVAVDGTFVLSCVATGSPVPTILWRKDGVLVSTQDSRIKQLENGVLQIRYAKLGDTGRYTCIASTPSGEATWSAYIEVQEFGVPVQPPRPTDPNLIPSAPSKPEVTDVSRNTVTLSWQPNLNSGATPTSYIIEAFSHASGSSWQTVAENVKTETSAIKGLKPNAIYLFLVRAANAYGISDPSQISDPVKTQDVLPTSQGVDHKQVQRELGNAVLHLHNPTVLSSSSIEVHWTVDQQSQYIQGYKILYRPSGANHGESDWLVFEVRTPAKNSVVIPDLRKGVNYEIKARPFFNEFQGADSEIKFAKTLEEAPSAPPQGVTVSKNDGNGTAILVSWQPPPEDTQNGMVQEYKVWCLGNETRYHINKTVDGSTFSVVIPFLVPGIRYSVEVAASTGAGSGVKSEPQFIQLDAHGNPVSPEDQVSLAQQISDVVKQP

In this test the target is Human ROBO1–Fc (human) (UniProt Q9Y6N7). Briefly: BLI.

No constants are given. Whether binding was seen depends on the method and setting. Some binding calls cover weakened binding; strength is not graded here.

B1: SLIT2 (recombinant) (ligand, UniProt O94813)
chain: QCSCSGSTVDCHGLALRSVPRNIPRNTERLDLNGNNITRITKTDFAGLRHLRVLQLMENKISTIERGAFQDLKELERLRLNRNHLQLFPELLFLGTAKLYRLDLSENQIQAIPRKAFRGAVDIKNLQLDYNQISCIEDGAFRALRDLEVLTLNNNNITRLSVASFNHMPKLRTFRLHSNNLYCDCHLAWLSDWLRQRPRVGLYTQCMGPSHLRGHNVAEVQKREFVCSGHQSFMAPSCSVLHCPAACTCSNNIVDCRGKGLTEIPTNLPETITEIRLEQNTIKVIPPGAFSPYKKLRRIDLSNNQISELAPDAFQGLRSLNSLVLYGNKITELPKSLFEGLFSLQLLLLNANKINCLRVDAFQDLHNLNLLSLYDNKLQTIAKGTFSPLRAIQTMHLAQNPFICDCHLKWLADYLHTNPIETSGARCTSPRRLANKRIGQIKSKKFRCSAKEQYFIPGTEDYRSKLSGDCFADLACPEKCRCEGTTVDCSNQKLNKIPEHIPQYTAELRLNNNEFTVLEATGIFKKLPQLRKINFSNNKITDIEEGAFEGASGVNEILLTSNRLENVQHKMFKGLESLKTLMLRSNRITCVGNDSFIGLSSVRLLSLYDNQITTVAPGAFDTLHSLSTLNLLANPFNCNCYLAWLGEWLRKKRIVTGNPRCQKPYFLKEIPIQDVAIQDFTCDDGNDDNSCSPLSRCPTECTCLDTVVRCSNKGLKVLPKGIPRDVTELYLDGNQFTLVPKELSNYKHLTLIDLSNNRISTLSNQSFSNMTQLLTLILSYNRLRCIPPRTFDGLKSLRLLSLHGNDISVVPEGAFNDLSALSHLAIGANPLYCDCNMQWLSDWVKSEYKEPGIARCAGPGEMADKLLLTTPSKKFTCQGPVDVNILAKCNPCLSNPCKNDGTCNSDPVDFYRCTCPYGFKGQDCDVPIHACISNPCKHGGTCHLKEGEEDGFWCICADGFEGENCEVNVDDCEDNDCENNSTCVDGINNYTCLCPPEYTGELCEEKLDFCAQDLNPCQHDSKCILTPKGFKCDCTPGYVGEHCDIDFDDCQDNKCKNGAHCTDAVNGYTCICPEGYSGLFCEFSPPMVLPRTSPCDNFDCQNGAQCIVRINEPICQCLPGYQGEKCEKLVSVNFINKESYLQIPSAKVRPQTNITLQIATDEDSGILLYKGDKDHIAVELYRGRVRASYDTGSHPASAIYSVETINDGNFHIVELLALDQSLSLSVDGGNPKIITNLSKQSTLNFDSPLYVGGMPGKSNVASLRQAPGQNGTSFHGCIRNLYINSELQDFQKVPMQTGILPGCEPCHKKVCAHGTCQPSSQAGFTCECQEGWMGPLCDQRTNDPCLGNKCVHGTCLPINAFSYSCKCLEGHGGVLCDEEEDLFNPCQAIKCKHGKCRLSGLGQPYCECSSGYTGDSCDREISCRGERIRDYYQKQQGYAACQTTKKVSRLECRGGCAGGQCCGPLRSKRRKYSFECTDGSSFVDEVEKVVKCGCTRCVS
For the molecule B1, the binding entry is recorded as “binds”.
